We go through 1 compound from patent EP4635949A1 (Jiangsu NHWA Pharmaceutical Co., Ltd, priority 2022, dated 2024).

For data set [1] the following is noted: male, SD, rat, in vivo, 30 mg/kg.
Data set [2] can be described thus: in vivo. Particulars: male, SD, rat.
Data set [3] is described as follows: in vivo. Particulars: male, SD, rat, 30 mg/kg.

Turning to `Cc1cc(C)nc(N2CC3CN(C(=O)c4c(F)cccc4-n4nccn4)CC3C2)n1` (stereo not drawn) [Seltorexant, reference compound], in data set [1], the “Brain” value came out at 516.3 ng/g and the “Plasma” value is reported as 2760.2 ng/mL. Also, in data set [2] (iv, 1 mg/kg), the Cmax stood at 1180 ng/mL. Besides, in data set [2] (po, 30 mg/kg), the Cmax was determined as 3170 ng/mL and the bioavailability was 26.8%. The compound further registered a Kp in data set [3] of 0.19.
